The values that follow come from PubChem BioAssay AID1458 (National Center for Advancing Translational Sciences (NCATS), 2008).

The structures appear in SMILES notation. In all, about 210,000 compounds went through this assay and about 5,900 (2.8%) were called active. Not shown: some 5% with an inconclusive outcome. Calls follow the shape of the dose curve; as a rule, active = well fitted activation curve with a large enough effect; inconclusive = small, poorly fitted or top-dose-only effect; inactive = no such curve, though single readings can be large or run the other way. The entries are a selection whose mix differs from that of the whole data set. The source gives no active or inactive call for entries shown without one.
Potency is read from the fitted curve at half-maximal effect.

This assay in a line: qHTS Assay for Enhancers of SMN2 Splice Variant Expression. Also: nearly all actives have a fitted effect of over 55% in size. As to activity change, positive = activation: % of control where 0% means no effect. To be noted: HEK293 SMN2-luciferase splicing reporter, luminescence, 30-36 h; activity change, positive = activation: at 46.1 µM (top of the series) unless noted. In short, it runs like this: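 HEK293 cells carry an SMN2 […]–luciferase reporter in which exon 7 inclusion puts luciferase in frame. Cells were plated 10-12 h before compound addition, then incubated 30-36 h at 37C. ONE-Glo luminescence was read; sodium butyrate at 4.5 mM final served as control.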
A general note: Quantitative high-throughput screening tests each substance at several concentrations.
On to `Cn1nc(C(=O)N2CCCC2)c2ccccc2c1=O`, for which the activity change, positive = activation was 46.5%.

Consider `CCOC(=O)/C=C/c1cnn(-c2ccccc2)c1`, for which the activity change, positive = activation turned out to be 71.7%.

On to `CCOC(=O)c1ccc(NC(=S)N2CCC(O)CC2)cc1`, for which the activity change, positive = activation is 37.4%.

Turning to `COc1ccc2c(c1)C(=O)[C@@H](O)[C@H](c1ccc(OC)c(Br)c1)O2`, the Potency result is “inactive”.

For the compound `CCCn1c(C)cc(C(=O)COC(=O)c2ccc[nH]c2=O)c1C`, the activity change, positive = activation is -10.8%.

As to `Cc1ccc(-n2ncc3ccccc3c2=O)cc1Cl`, the Potency was active: 14.1 µM.

`COC(=O)c1ccc(NC2CC(=O)N(c3ccccc3C)C2=O)cc1` (stereo unspecified): the activity change, positive = activation is 33.6%.

As to `CCOC(=O)c1sc(=NC(=O)c2cccc(C)c2)n(C)c1C`, the Potency is active: 10 µM.

For `CC(=O)n1nc(-c2ccc(Cl)cc2)nc1NCc1ccco1`, the activity change, positive = activation came out at 39.3%.

Turning to `CC(=O)Oc1cc(OC(C)=O)c2c(c1)OC(c1ccc(OC(C)=O)c(OC(C)=O)c1)C(OC(C)=O)C2` (stereo unspecified), the Potency result is “inactive”.

For `CC(C)OC(=O)c1ccc(NC(=O)c2ccccc2)cc1`, the Potency was active: 12.6 µM.

Consider `COc1ccccc1/C=N/NC(=S)Nc1cccnc1`, for which the activity change, positive = activation worked out at 51.8%.

As for `Cc1ccc(S(=O)(=O)N2CCC(=O)N(C(CO)C(C)C)CC2)cc1` (stereo unspecified), the activity change, positive = activation worked out at 39.3%.

Take `O=C(Nc1ccc(F)cc1)N(CCCN1CCOCC1)Cc1cc2cc3c(cc2[nH]c1=O)OCCO3`: the “activity change, positive = activation” value is inactive: -52.6%.

For the compound `COC(=O)C1=C(O)/C(=C\c2ccc(O)c(OC)c2)N=C1C`, the activity change, positive = activation stood at 35.9%.

As for `O=C(CSc1ncn(-c2ccccc2)n1)Nc1ccc(Br)cn1`, the activity change, positive = activation was 30.9%.

On to `COCCCNC(=O)c1ccc(-c2csc(C)n2)cc1`, for which the activity change, positive = activation came out at 75.6%.

Regarding `CCOC(=O)c1[nH]c2cc(OC)c(OC)cc2c1NC(=O)CN1CCN(C)CC1`, the activity change, positive = activation amounted to 32%.

For `CCOC(=O)C(NC(C)=O)(NS(=O)(=O)c1ccccc1)C(F)(F)F` (stereo unspecified), the activity change, positive = activation amounted to 32.7%.

With `CSc1ncccc1C(=O)OCc1ccccc1Cl`, the activity change, positive = activation was found to be 36.1%.

`c1ccc(Cn2ccc(-c3cnc(-c4ccccc4)s3)n2)cc1`: the activity change, positive = activation worked out at 49%.

For `O=[N+]([O-])c1cc(Br)c(O)c(/C=N/Nc2nc3ccccc3s2)c1`, the “activity change, positive = activation” value was inactive: -60.1%.

As for `Fc1ccc(NC(=S)Nc2cccc3cnccc23)cc1`, the activity change, positive = activation was -42.9%.

As for `CN1/C(=C/C(=O)c2nc(S(C)(=O)=O)ncc2Cl)C(C)(C)c2ccccc21`, the activity change, positive = activation is -102%.

`O=C(Nc1ccccc1)Nc1ccc(C(=O)N2CCOCC2)cc1`: the Potency is active: 20 µM.

On to `FC(F)(F)c1cccc(N2CCN(C(=S)NCC3CCCO3)CC2)c1` (stereo unspecified), for which the “activity change, positive = activation” value is inactive: -68.8%.

`Cc1cnc(C(=O)Nc2ccc(F)cc2)cn1`: the Potency was active: 12.6 µM.

As for `Cc1cccc(-c2nsc(SCC(=O)N3CCCC3)n2)c1`, the Potency was active: 14.1 µM.

With `Cc1sc(NC(=O)C2CCCO2)c(C#N)c1C` (stereo unspecified), the activity change, positive = activation turned out to be 45.9%.

On to `COC(=O)CNC(=O)c1nn(-c2cccc(OC)c2)c(=O)c2ccccc12`, for which the activity change, positive = activation was found to be 36%.

As to `CCCOc1ccc(C(=O)ON=C2CCN(C)CC2)cc1`, the “activity change, positive = activation” value is inactive: -24.6%.
